US20120288507A1
Results are given in words; binding and its absence hold for the method and conditions named. Some entries that bind do so weakly or less than the wild type.

The chains behind the UniProt entries cited, without tags or fusion partners. Where a name states a change or a piece, a line headed by the entry shows the natural chain unless it says otherwise. Residues count along the entry.
UniProt O88572, residues 20-1370: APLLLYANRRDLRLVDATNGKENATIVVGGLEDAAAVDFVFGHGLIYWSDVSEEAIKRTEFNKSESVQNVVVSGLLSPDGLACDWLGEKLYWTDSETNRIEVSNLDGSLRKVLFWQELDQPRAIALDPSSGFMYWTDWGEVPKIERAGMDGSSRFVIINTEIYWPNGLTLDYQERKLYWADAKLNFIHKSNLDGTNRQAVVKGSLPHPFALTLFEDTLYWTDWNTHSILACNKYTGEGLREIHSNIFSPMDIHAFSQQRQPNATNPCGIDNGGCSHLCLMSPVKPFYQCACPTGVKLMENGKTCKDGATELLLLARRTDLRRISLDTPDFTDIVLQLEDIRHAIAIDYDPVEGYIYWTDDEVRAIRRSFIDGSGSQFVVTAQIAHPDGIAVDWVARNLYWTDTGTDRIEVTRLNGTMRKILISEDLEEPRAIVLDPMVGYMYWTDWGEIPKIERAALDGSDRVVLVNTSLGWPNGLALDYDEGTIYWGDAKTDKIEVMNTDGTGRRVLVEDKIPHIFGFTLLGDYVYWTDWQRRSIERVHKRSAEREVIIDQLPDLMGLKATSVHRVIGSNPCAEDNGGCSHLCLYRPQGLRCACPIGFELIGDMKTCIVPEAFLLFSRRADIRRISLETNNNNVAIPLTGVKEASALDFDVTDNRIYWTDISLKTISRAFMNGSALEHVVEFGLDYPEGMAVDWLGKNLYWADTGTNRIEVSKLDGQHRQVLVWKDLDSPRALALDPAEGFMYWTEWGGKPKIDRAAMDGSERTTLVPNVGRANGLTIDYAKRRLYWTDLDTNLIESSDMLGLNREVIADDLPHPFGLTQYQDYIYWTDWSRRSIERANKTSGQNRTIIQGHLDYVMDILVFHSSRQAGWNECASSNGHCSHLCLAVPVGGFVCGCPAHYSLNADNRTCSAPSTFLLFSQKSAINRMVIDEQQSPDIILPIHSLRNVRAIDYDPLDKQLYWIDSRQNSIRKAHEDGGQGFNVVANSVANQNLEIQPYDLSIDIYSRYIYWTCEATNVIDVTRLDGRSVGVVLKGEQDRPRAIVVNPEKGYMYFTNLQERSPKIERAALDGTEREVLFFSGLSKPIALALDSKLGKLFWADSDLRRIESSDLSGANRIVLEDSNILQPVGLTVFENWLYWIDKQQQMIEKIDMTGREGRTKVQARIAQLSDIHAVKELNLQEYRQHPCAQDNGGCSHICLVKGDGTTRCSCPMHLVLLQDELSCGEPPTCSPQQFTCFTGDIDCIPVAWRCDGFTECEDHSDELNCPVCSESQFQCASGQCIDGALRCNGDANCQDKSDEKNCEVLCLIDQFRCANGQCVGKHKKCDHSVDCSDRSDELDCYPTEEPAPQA
UniProt Q6X4U4: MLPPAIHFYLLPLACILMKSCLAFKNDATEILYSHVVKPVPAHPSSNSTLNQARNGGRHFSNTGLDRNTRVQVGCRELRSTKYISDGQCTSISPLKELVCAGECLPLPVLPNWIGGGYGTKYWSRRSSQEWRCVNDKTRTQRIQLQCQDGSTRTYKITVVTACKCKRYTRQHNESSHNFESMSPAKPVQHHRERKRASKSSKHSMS

Biological target: rmLRP6-His6 (R&D Systems) (mouse (printed as rm)) (UniProt O88572)
Assay: AlphaScreen, biotinylated huWise and rmLRP6-His6

With “biotinylated recombinant human WISE (from UniProt Q6X4U4 24-206) (ligand)” the binding was “binds”.
